Laboratory results reported in paper doi:10.1101/513135.
These are yes or no findings as the source states them, for the method shown. Binding seen in cells or lysates may run through a third protein. Some results given as binding are weak or reduced against the parent protein; the word gives no strength. Where a sequence is shown, tags or fusion partners need not be part of it.

T1: Mdh1-GFP (S. cerevisiae) (UniProt P17505)
T1 sequence: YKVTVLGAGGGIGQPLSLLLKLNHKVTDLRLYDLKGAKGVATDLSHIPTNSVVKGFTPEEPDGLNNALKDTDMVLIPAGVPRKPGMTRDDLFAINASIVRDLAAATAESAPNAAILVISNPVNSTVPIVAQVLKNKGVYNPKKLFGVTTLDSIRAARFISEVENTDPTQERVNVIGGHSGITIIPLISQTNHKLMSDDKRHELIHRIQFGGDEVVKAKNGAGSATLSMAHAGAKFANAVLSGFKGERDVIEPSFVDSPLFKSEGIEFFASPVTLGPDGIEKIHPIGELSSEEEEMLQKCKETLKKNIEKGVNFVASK

B1: Cit1-HA (protein, UniProt P00890 38-479)
chain: SSASEQTLKERFAEIIPAKAEEIKKFKKEHGKTVIGEVLLEQAYGGMRGIKGLVWEGSVLDPEEGIRFRGRTIPEIQRELPKAEGSTEPLPEALFWLLLTGEIPTDAQVKALSADLAARSEIPEHVIQLLDSLPKDLHPMAQFSIAVTALESESKFAKAYAQGVSKKEYWSYTFEDSLDLLGKLPVIASKIYRNVFKDGKITSTDPNADYGKNLAQLLGYENKDFIDLMRLYLTIHSDHEGGNVSAHTTHLVGSALSSPYLSLAAGLNGLAGPLHGRANQEVLEWLFKLREEVKGDYSKETIEKYLWDTLNAGRVVPGYGHAVLRKTDPRYTAQREFALKHFPDYELFKLVSTIYEVAPGVLTKHGKTKNPWPNVDSHSGVLLQYYGLTEASFYTVLFGVARAIGVLPQLIIDRAVGAPIERPKSFSTEKYKELVKKIESKN
B2: Mic60-HA (protein, UniProt P36112 18-540)
chain: ASINTGTTVASKKASHKFRNTLWTIALSATAFYAGGIIYSQKNDKFGDFFSNNVPFAEDLLETYEHYHDRPTLFLEDSWDGLKAKSNDLLSGLTGSSQTRRSNRENIEVKKILSLEPLNIETENSDPQLKEIIGSLNDLINSLNDSNLSIPESEFNSIKKSNQNMLTNLSQLNETLKEALSNYMIQRTSEVITELNTQYENSKREFEKNLQKNLLQEVDEFKENLTKQKDKELEEKLKANEELLQAKHANEVGLLSITQVKEFNKIIKDKIEKERNGRLAHLEEINSEVNDLSKSIDRSSKILSKNEALVQLTFQVDEIKSRINNNNLPDVNIDKELSRLKLLSNLLSTFNKKSCCDDGDCCSCKKGNKNEGKEGKISCKCKPKTNPPSLLSVALDELESTCSGKKILSNEQIYNRWNLLADDFKTASLLPPNSGILGQLTAKVFSLFLFTKTGNPSNATDFDSVYARVGDNLRVSNLNDAVEEVVSLKGWPHKVCESWIEDARRKLEVQRLVEILDCEIRTL
B3: Idh1-HA (protein, UniProt P28834 12-360)
chain: ATAAQAERTLPKKYGGRFTVTLIPGDGVGKEITDSVRTIFEAENIPIDWETINIKQTDHKEGVYEAVESLKRNKIGLKGLWHTPADQTGHGSLNVALRKQLDIYANVALFKSLKGVKTRIPDIDLIVIRENTEGEFSGLEHESVPGVVESLKVMTRPKTERIARFAFDFAKKYNRKSVTAVHKANIMKLGDGLFRNIITEIGQKEYPDIDVSSIIVDNASMQAVAKPHQFDVLVTPSMYGTILGNIGAALIGGPGLVAGANFGRDYAVFEPGSRHVGLDIKGQNVANPTAMILSSTLMLNHLGLNEYATRISKAVHETIAEGKHTTRDIGGSSSTTDFTNEIINKLSTM

target: T1, Mdh1-GFP (S. cerevisiae); assay: co-IP

binding	Binder
binds	B1
binds	B2
binds	B3
